Data as given in PubChem BioAssay AID504791 (Drosophila RNAi Screening Center, 2011)
Aim: 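Factors in Argonaute-based small RNA production and activity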 (primary screen). Cells: Drosophila S2-derived reporter cells. Reagent: long dsRNA against Drosophila genes, about 150-250 ng dsRNA per well (siRNA assay); about 80-120 ng (miRNA assay). Duration: about 5 days (siRNA assay); about 4 days (miRNA assay). Conditions: copper sulfate induction of reporters: 25 µM (siRNA assay); 200 mM stated (miRNA assay), 1-2 days before reading. Measured: 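Dual luciferase assay: Renilla to firefly signal ratio in each well, scaled to the mean ratio of its plate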. Units: stable assay Renilla, run 1 in luminescence; stable assay firefly, run 1 in luminescence. Hit rule: 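First-pass picks had plate-scaled ratios over 1.5 for the siRNA assay, over 1.6 for the miRNA assay, or under 0.6; two distinct dsRNAs had to score alike on retest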.
The screen tested about 23,000 reagents; this is a random part of those that have a named target and a result. Of all reagents, 199 (0.86%) were called active. 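Plate-scaled ratios behind the calls are not deposited; printed light signals are raw; many rows marked increased or decreased are still called inactive.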 Unmarked entries are inactive. Reagents against one gene are numbered here. A plus sign joins genes that one reagent is predicted to hit. Not stated in the record: the direction of the score.

For dmrt11E (doublesex-Mab related 11E), the values are stable assay Renilla, run 1 = 4487; stable assay firefly, run 1 = 3.59e5. CG30416 showed stable assay Renilla, run 1 = 6603; stable assay firefly, run 1 = 3.81e5. With knock-down of CG17005, the screen gave stable assay Renilla, run 1 = 7556; stable assay firefly, run 1 = 4.41e5. CG6125 gave stable assay Renilla, run 1 = 7631; stable assay firefly, run 1 = 4.23e5. With knock-down of CG7408, the record shows stable assay Renilla, run 1 = 8182; stable assay firefly, run 1 = 3.89e5. With knock-down of Pvf3 (PDGF- and VEGF-related factor 3) #1, the record shows stable assay Renilla, run 1 = 7434; stable assay firefly, run 1 = 4.11e5.

With knock-down of Pvf3 (PDGF- and VEGF-related factor 3) #2, the record shows stable assay Renilla, run 1 = 6968; stable assay firefly, run 1 = 4.24e5. Depletion of Pvf3 (PDGF- and VEGF-related factor 3) #3 gave: stable assay Renilla, run 1 = 6918; stable assay firefly, run 1 = 3.76e5. Silencing of Pvf3 (PDGF- and VEGF-related factor 3) #4 resulted in: stable assay Renilla, run 1 = 7456; stable assay firefly, run 1 = 3.36e5. After knock-down of mgl (Megalin) #1, the screen gave stable assay Renilla, run 1 = 4703; stable assay firefly, run 1 = 3.61e5. For mgl (Megalin) #2 the deposit lists stable assay Renilla, run 1 = 6655; stable assay firefly, run 1 = 4.49e5. Against mgl (Megalin) #3, the values are stable assay Renilla, run 1 = 5023; stable assay firefly, run 1 = 4.14e5.

For mgl (Megalin) #4, the entry reads stable assay Renilla, run 1 = 4324; stable assay firefly, run 1 = 3.44e5. With knock-down of Arr2 (Arrestin 2), the record shows stable assay Renilla, run 1 = 7634; stable assay firefly, run 1 = 5.87e5. aux (auxilin) scored stable assay Renilla, run 1 = 7682; stable assay firefly, run 1 = 2.72e5. Against CG5267, the values are stable assay Renilla, run 1 = 6464; stable assay firefly, run 1 = 2.88e5. With knock-down of ssp3 (short spindle 3) #1 the results were stable assay Renilla, run 1 = 7814; stable assay firefly, run 1 = 4.36e5. ssp3 (short spindle 3) #2 showed stable assay Renilla, run 1 = 6908; stable assay firefly, run 1 = 4.64e5.

Silencing of CG12432 (retired record) gave: stable assay Renilla, run 1 = 4931; stable assay firefly, run 1 = 5.11e5. Gr77a (Gustatory receptor 77a) scored stable assay Renilla, run 1 = 7244; stable assay firefly, run 1 = 4.83e5. Depletion of ArgRS (Arginyl-tRNA synthetase) came out at: stable assay Renilla, run 1 = 6271; stable assay firefly, run 1 = 4.50e5. CG10934 gave stable assay Renilla, run 1 = 7763; stable assay firefly, run 1 = 2.94e5. With knock-down of tyf (twenty-four) the results were stable assay Renilla, run 1 = 4995; stable assay firefly, run 1 = 2.43e5. Depletion of CG42304 + Snup #1 came out at: stable assay Renilla, run 1 = 10072; stable assay firefly, run 1 = 4.72e5.

With knock-down of CG42304 + Snup #2, the screen gave stable assay Renilla, run 1 = 5151; stable assay firefly, run 1 = 3.11e5. For CG42304 + Snup #3, the entry reads stable assay Renilla, run 1 = 4500; stable assay firefly, run 1 = 4.26e5. Silencing of unc80 (uncoordinated 80) gave: miRNA reporter change reporter ratio raised past the hit cutoff; stable assay Renilla, run 1 = 6982; stable assay firefly, run 1 = 4.47e5. CG15629 showed stable assay Renilla, run 1 = 7782; stable assay firefly, run 1 = 4.41e5. Silencing of CG34200 gave: stable assay Renilla, run 1 = 5187; stable assay firefly, run 1 = 4.90e5. After knock-down of ldbr (lariat debranching enzyme), the record shows stable assay Renilla, run 1 = 8763; stable assay firefly, run 1 = 3.65e5.

With knock-down of CG12025 the results were stable assay Renilla, run 1 = 4799; stable assay firefly, run 1 = 3.14e5. With knock-down of CG9760 the results were stable assay Renilla, run 1 = 7631; stable assay firefly, run 1 = 3.84e5. Depletion of CG13869 + CG11099 gave: stable assay Renilla, run 1 = 7015; stable assay firefly, run 1 = 3.71e5. After knock-down of CG14286, the record shows stable assay Renilla, run 1 = 7038; stable assay firefly, run 1 = 3.73e5. After knock-down of CG42272 #1, the screen gave stable assay Renilla, run 1 = 4107; stable assay firefly, run 1 = 3.47e5. Against CG42272 #2, the values are stable assay Renilla, run 1 = 3827; stable assay firefly, run 1 = 2.91e5.

Already shown: an excerpt of the list.
mgl (Megalin) #4 → stable assay Renilla, run 1: 4324; stable assay firefly, run 1: 3.44e5
Arr2 (Arrestin 2) → stable assay Renilla, run 1: 7634; stable assay firefly, run 1: 5.87e5
aux (auxilin) → stable assay Renilla, run 1: 7682; stable assay firefly, run 1: 2.72e5
CG5267 → stable assay Renilla, run 1: 6464; stable assay firefly, run 1: 2.88e5
ssp3 (short spindle 3) #1 → stable assay Renilla, run 1: 7814; stable assay firefly, run 1: 4.36e5
